Source: article PMC5808757
No constants are given. Whether binding was seen depends on the method and setting. Binding seen in cells or lysates may run through a third protein. Some binding calls cover weakened binding; strength is not graded here. Where a sequence is shown, tags or fusion partners need not be part of it.

T1: His-tagged wildtype DR3 (death receptor 3) (human) (UniProt Q93038)
T1 sequence: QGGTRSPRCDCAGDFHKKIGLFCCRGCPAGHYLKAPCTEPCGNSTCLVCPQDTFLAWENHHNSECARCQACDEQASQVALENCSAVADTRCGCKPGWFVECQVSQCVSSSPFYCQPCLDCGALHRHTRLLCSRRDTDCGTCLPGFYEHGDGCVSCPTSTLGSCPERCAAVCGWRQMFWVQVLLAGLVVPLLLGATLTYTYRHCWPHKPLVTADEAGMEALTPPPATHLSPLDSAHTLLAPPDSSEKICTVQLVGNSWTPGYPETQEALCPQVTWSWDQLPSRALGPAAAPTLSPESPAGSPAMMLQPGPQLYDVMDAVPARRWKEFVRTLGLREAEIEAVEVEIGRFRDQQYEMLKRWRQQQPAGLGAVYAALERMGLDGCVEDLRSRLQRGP


Tests used:
[1] = target: T1, His-tagged wildtype DR3 (death receptor 3) (human); assay: co-IP; lysates of transiently transfected 293T cells; immunoprecipitated with anti-His monoclonal antibody, blotted with anti-His and anti-GFP
[2] = target: T1, His-tagged wildtype DR3 (death receptor 3) (human); assay: co-IP; 293T cells transfected with His-DR3 and FLAG-TRADD, without or with increasing amounts of EGFP-Var DR3-D159G (0.1 and 0.2 μg); immunoprecipitation and Western blotting

Row | Binder | binding [1] | binding [2]
1 | EGFP-DR3D159G (wildtype DR3 with a D159G substitution, i.e. polymorphism a) (receptor, UniProt Q93038 25-417) QGGTRSPRCDCAGDFHKKIGLFCCRGCPAGHYLKAPCTEPCGNSTCLVCPQDTFLAWENHHNSECARCQACDEQASQVALENCSAVADTRCGCKPGWFVECQVSQCVSSSPFYCQPCLDCGALHRHTRLLCSRRGTDCGTCLPGFYEHGDGCVSCPTSTLGSCPERCAAVCGWRQMFWVQVLLAGLVVPLLLGATLTYTYRHCWPHKPLVTADEAGMEALTPPPATHLSPLDSAHTLLAPPDSSEKICTVQLVGNSWTPGYPETQEALCPQVTWSWDQLPSRALGPAAAPTLSPESPAGSPAMMLQPGPQLYDVMDAVPARRWKEFVRTLGLREAEIEAVEVEIGRFRDQQYEMLKRWRQQQPAGLGAVYAALERMGLDGCVEDLRSRLQRGP | binds | –
2 | FLAG-tagged TRADD (TNFR-associated death domain protein) (protein, UniProt Q15628 1-312) MAAGQNGHEEWVGSAYLFVESSLDKVVLSDAYAHPQQKVAVYRALQAALAESGGSPDVLQMLKIHRSDPQLIVQLRFCGRQPCGRFLRAYREGALRAALQRSLAAALAQHSVPLQLELRAGAERLDALLADEERCLSCILAQQPDRLRDEELAELEDALRNLKCGSGARGGDGEVASAPLQPPVPSLSEVKPPPPPPPAQTFLFQGQPVVNRPLSLKDQQTFARSVGLKWRKVGRSLQRGCRALRDPALDSLAYEYEREGLYEQAFQLLRRFVQAEGRRATLQRLVEALEENELTSLAEDLLGLTDPNGGLA | – | binds
